Experimental findings from patent US20240417469A1 are described below.

The chains behind the UniProt entries cited, without tags or fusion partners. Where a name states a change or a piece, a line headed by the entry shows the natural chain unless it says otherwise.
UniProt P07766: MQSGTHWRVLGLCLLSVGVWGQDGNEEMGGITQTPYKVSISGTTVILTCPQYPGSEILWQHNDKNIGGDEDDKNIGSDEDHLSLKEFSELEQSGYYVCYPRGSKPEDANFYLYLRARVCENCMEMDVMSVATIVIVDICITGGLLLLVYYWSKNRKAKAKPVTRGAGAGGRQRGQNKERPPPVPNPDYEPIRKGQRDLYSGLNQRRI
UniProt P04234: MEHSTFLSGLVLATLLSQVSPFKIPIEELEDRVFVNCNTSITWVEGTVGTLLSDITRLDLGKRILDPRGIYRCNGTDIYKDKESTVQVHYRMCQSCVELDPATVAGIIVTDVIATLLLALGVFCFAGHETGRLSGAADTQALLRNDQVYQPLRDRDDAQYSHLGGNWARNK

Results are given in words; binding and its absence hold for the method and conditions named. Some binding calls cover weakened binding; strength is not graded here.

This assay deals with human CD3 protein (human) (UniProt P07766+P04234). As to the kind of experiment: ELISA. In general terms: In an ELISA, binding on a coated surface is turned into a signal by an enzyme label.

B1: Hu153A6B1-9 (antibody, V domains shown)
VH: EVQLQESGPGLVKPSETLSLTCTVSGGSISSYNIHWVRQPPGKGLEWMGRIRYNGDTSYNSALKSRLTISRDTSKNQFSLKLSSVTAADTAVYYCARGPYGGSREPLFDYWGQGTMVTVSS
VL: DIQMTQSPSSLSASVGDRVTITCKTSQNINKYLNWFQQKPGKAPKLLIYTTNNLQTGIPSRFSGSGSGTDFTLTISSLQPEDFATYYCLQHGSGYTFGQGTKLEIK
Regarding B1, the binding entry was “binds”.

B2: Hu153A6B1-14 (antibody, V domains shown)
VH: EVQLQESGPGLVKPSETLSLTCTVSGGSISSYNIHWVRQPPGKGLEWIGRIRYNGDTSYNSALKSRVTISRDTSKNQFSLKLSSVTAADTAVYYCARGPYGGSREPLFDYWGQGTMVTVSS
VL: DIQMTQSPSSLSASVGDRVTITCKTSQNINKYLNWFQQKPGKAPKLLIYTTNNLQTGIPSRFSGSGSGTDFTLTISSLQPEDFATYFCLQHGSGYTFGQGTKLEIK
Turning to B2, the binding result is “binds”.

B3: Hu153A6B1-13 (antibody, V domains shown)
VH: EVQLQESGPGLVKPSETLSLTCTVSGGSISSYNIHWIRQPPGKGLEWIGRIRYNGDTSYNSALKSRVTISVDTSKNQFSLKLSSVTAADTAVYYCARGPYGGSREPLFDYWGQGTMVTVSS
VL: DIQMTQSPSSLSASVGDRVTITCKTSQNINKYLNWFQQKPGKAPKLLIYTTNNLQTGIPSRFSGSGSGTDFTLTISSLQPEDFATYFCLQHGSGYTFGQGTKLEIK
Regarding B3, the binding entry was “binds”.

B4: Hu155A9B1-3 (antibody, V domains shown)
VH: EVQLQESGPGLVKPSETLSLTCTVSGGSISSYNVHWVRQPPGKGLEWMGRVRYNGDTSYNSALKSRLTISRDTSKNQFSLKLSSVTAADTAVYYCARGPYGGSSEPLFDYWGQGTMVTVSS
VL: DIQMTQSPSSLSASVGDRVTITCKASQNINKYLNWYQQKPGKAPRLLIYTTNNLQTGVPSRFSGSGSGTDFTLTISSLQPEDFATYYCLQHNSGYTFGQGTKLEIK
Regarding B4, the binding result is recorded as “binds”.

B5: Hu153A6B1-11 (antibody, V domains shown)
VH: EVQLQESGPGLVKPSETLSLTCTVSGFSISSYNIHWVRQPPGKGLEWMGRIRYNGDTSYNSALKSRLTISRDTSKNQVSLKLSSVTAADTAVYYCTRGPYGGSREPLFDYWGQGTMVTVSS
VL: DIQMTQSPSSLSASVGDRVTITCKTSQNINKYLNWFQQKPGKAPKLLIYTTNNLQTGIPSRFSGSGSGTDFTLTISSLQPEDFATYYCLQHGSGYTFGQGTKLEIK
Turning to B5, the binding result is “binds”.

B6: Hu155A9B1-7 (antibody, V domains shown)
VH: EVQLQESGPGLVKPSETLSLTCTVSGGSISSYNVHWIRQPPGKGLEWIGRVRYNGDTSYNSALKSRVTISVDTSKNQFSLKLSSVTAADTAVYYCARGPYGGSSEPLFDYWGQGTMVTVSS
VL: DIQMTQSPSSLSASVGDRVTITCKASQNINKYLNWFQQKPGKAPRLLIYTTNNLQTGIPSRFSGSGSGTDFTLTISSLQPEDFATYYCLQHNSGYTFGQGTKLEIK
As to B6, the binding result is recorded as “binds”.

B7: Hu155A9B1-6 (antibody, V domains shown)
VH: EVQLQESGPGLVKPSETLSLTCTVSGFSLTSYNVHWVRQPPGKGLEWMGRVRYNGDTSYNSALKSRLTISRDTSKNQASLKLSSVTAADTAVYYCTRGPYGGSSEPLFDYWGQGTMVTVSS
VL: DIQMTQSPSSLSASVGDRVTITCKASQNINKYLNWYQQKPGKAPRLLIYTTNNLQTGVPSRFSGSGSGTDFTLTISSLQPEDFATYYCLQHNSGYTFGQGTKLEIK
As for B7, the binding entry is given as “binds”.

B8: Hu155A9B1-1 (antibody, V domains shown)
VH: EVQLQESGPGLVKPSETLSLTCTVSGGSISSYNVHWIRQPPGKGLEWIGRVRYNGDTSYNSALKSRVTISVDTSKNQFSLKLSSVTAADTAVYYCARGPYGGSSEPLFDYWGQGTMVTVSS
VL: DIQMTQSPSSLSASVGDRVTITCKASQNINKYLNWYQQKPGKAPRLLIYTTNNLQTGVPSRFSGSGSGTDFTLTISSLQPEDFATYYCLQHNSGYTFGQGTKLEIK
Consider B8, for which the binding result is listed as “binds”.

B9: Hu155A9B1-11 (antibody, V domains shown)
VH: EVQLQESGPGLVKPSETLSLTCTVSGFSISSYNVHWVRQPPGKGLEWMGRVRYNGDTSYNSALKSRLTISRDTSKNQASLKLSSVTAADTAVYYCTRGPYGGSSEPLFDYWGQGTMVTVSS
VL: DIQMTQSPSSLSASVGDRVTITCKASQNINKYLNWFQQKPGKAPRLLIYTTNNLQTGIPSRFSGSGSGTDFTLTISSLQPEDFATYYCLQHNSGYTFGQGTKLEIK
As for B9, the binding entry is “binds”.

B10: Hu153A6B1-17 (antibody, V domains shown)
VH: EVQLQESGPGLVKPSETLSLTCTVSGFSISSYNIHWVRQPPGKGLEWMGRIRYNGDTSYNSALKSRLTISRDTSKNQVSLKLSSVTAADTAVYYCTRGPYGGSREPLFDYWGQGTMVTVSS
VL: DIQMTQSPSSLSASVGDRVTITCKTSQNINKYLNWFQQKPGKAPKLLIYTTNNLQTGIPSRFSGSGSGTDFTLTISSLQPEDFATYFCLQHGSGYTFGQGTKLEIK
Take B10: the binding entry is “binds”.

B11: Hu153A6B1-16 (antibody, V domains shown)
VH: EVQLQESGPGLVKPSETLSLTCTVSGGSISSYNIHWVRQPPGKGLEWMGRIRYNGDTSYNSALKSRLTISRDTSKNQFSLKLSSVTAADTAVYYCTRGPYGGSREPLFDYWGQGTMVTVSS
VL: DIQMTQSPSSLSASVGDRVTITCKTSQNINKYLNWFQQKPGKAPKLLIYTTNNLQTGIPSRFSGSGSGTDFTLTISSLQPEDFATYFCLQHGSGYTFGQGTKLEIK
B11: the binding entry is given as “binds”.

B12: Hu153A6B1-15 (antibody, V domains shown)
VH: EVQLQESGPGLVKPSETLSLTCTVSGGSISSYNIHWVRQPPGKGLEWMGRIRYNGDTSYNSALKSRLTISRDTSKNQFSLKLSSVTAADTAVYYCARGPYGGSREPLFDYWGQGTMVTVSS
VL: DIQMTQSPSSLSASVGDRVTITCKTSQNINKYLNWFQQKPGKAPKLLIYTTNNLQTGIPSRFSGSGSGTDFTLTISSLQPEDFATYFCLQHGSGYTFGQGTKLEIK
Take B12: the binding result is on record as “binds”.

B13: Hu155A9B1-10 (antibody, V domains shown)
VH: EVQLQESGPGLVKPSETLSLTCTVSGGSISSYNVHWVRQPPGKGLEWMGRVRYNGDTSYNSALKSRLTISRDTSKNQFSLKLSSVTAADTAVYYCTRGPYGGSSEPLFDYWGQGTMVTVSS
VL: DIQMTQSPSSLSASVGDRVTITCKASQNINKYLNWFQQKPGKAPRLLIYTTNNLQTGIPSRFSGSGSGTDFTLTISSLQPEDFATYYCLQHNSGYTFGQGTKLEIK
As for B13, the binding result was “binds”.

B14: Hu155A9B1-9 (antibody, V domains shown)
VH: EVQLQESGPGLVKPSETLSLTCTVSGGSISSYNVHWVRQPPGKGLEWMGRVRYNGDTSYNSALKSRLTISRDTSKNQFSLKLSSVTAADTAVYYCARGPYGGSSEPLFDYWGQGTMVTVSS
VL: DIQMTQSPSSLSASVGDRVTITCKASQNINKYLNWFQQKPGKAPRLLIYTTNNLQTGIPSRFSGSGSGTDFTLTISSLQPEDFATYYCLQHNSGYTFGQGTKLEIK
Consider B14, for which the binding entry was “binds”.

B15: Hu155A9B1-4 (antibody, V domains shown)
VH: EVQLQESGPGLVKPSETLSLTCTVSGGSISSYNVHWVRQPPGKGLEWMGRVRYNGDTSYNSALKSRLTISRDTSKNQFSLKLSSVTAADTAVYYCTRGPYGGSSEPLFDYWGQGTMVTVSS
VL: DIQMTQSPSSLSASVGDRVTITCKASQNINKYLNWYQQKPGKAPRLLIYTTNNLQTGVPSRFSGSGSGTDFTLTISSLQPEDFATYYCLQHNSGYTFGQGTKLEIK
Consider B15, for which the binding entry is reported as “binds”.

B16: Hu153A6B1-18 (antibody, V domains shown)
VH: EVQLQESGPGLVKPSETLSLTCTVSGFSLTSYNIHWVRQPPGKGLEWMGRIRYNGDTSYNSALKSRLTISRDTSKNQVSLKLSSVTAADTAVYYCTRGPYGGSREPLFDYWGQGTMVTVSS
VL: DIQMTQSPSSLSASVGDRVTITCKTSQNINKYLNWFQQKPGKAPKLLIYTTNNLQTGIPSRFSGSGSGTDFTLTISSLQPEDFATYFCLQHGSGYTFGQGTKLEIK
For the molecule B16, the binding result is “binds”.

B17: Hu155A9B1-5 (antibody, V domains shown)
VH: EVQLQESGPGLVKPSETLSLTCTVSGFSISSYNVHWVRQPPGKGLEWMGRVRYNGDTSYNSALKSRLTISRDTSKNQASLKLSSVTAADTAVYYCTRGPYGGSSEPLFDYWGQGTMVTVSS
VL: DIQMTQSPSSLSASVGDRVTITCKASQNINKYLNWYQQKPGKAPRLLIYTTNNLQTGVPSRFSGSGSGTDFTLTISSLQPEDFATYYCLQHNSGYTFGQGTKLEIK
Turning to B17, the binding result is given as “binds”.

B18: Hu155A9B1-12 (antibody, V domains shown)
VH: EVQLQESGPGLVKPSETLSLTCTVSGFSLTSYNVHWVRQPPGKGLEWMGRVRYNGDTSYNSALKSRLTISRDTSKNQASLKLSSVTAADTAVYYCTRGPYGGSSEPLFDYWGQGTMVTVSS
VL: DIQMTQSPSSLSASVGDRVTITCKASQNINKYLNWFQQKPGKAPRLLIYTTNNLQTGIPSRFSGSGSGTDFTLTISSLQPEDFATYYCLQHNSGYTFGQGTKLEIK
Regarding B18, the binding result is given as “binds”.

B19: Hu153A6B1-12 (antibody, V domains shown)
VH: EVQLQESGPGLVKPSETLSLTCTVSGFSLTSYNIHWVRQPPGKGLEWMGRIRYNGDTSYNSALKSRLTISRDTSKNQVSLKLSSVTAADTAVYYCTRGPYGGSREPLFDYWGQGTMVTVSS
VL: DIQMTQSPSSLSASVGDRVTITCKTSQNINKYLNWFQQKPGKAPKLLIYTTNNLQTGIPSRFSGSGSGTDFTLTISSLQPEDFATYYCLQHGSGYTFGQGTKLEIK
With B19, the binding result was “binds”.

B20: Hu153A6B1-10 (antibody, V domains shown)
VH: EVQLQESGPGLVKPSETLSLTCTVSGGSISSYNIHWVRQPPGKGLEWMGRIRYNGDTSYNSALKSRLTISRDTSKNQFSLKLSSVTAADTAVYYCTRGPYGGSREPLFDYWGQGTMVTVSS
VL: DIQMTQSPSSLSASVGDRVTITCKTSQNINKYLNWFQQKPGKAPKLLIYTTNNLQTGIPSRFSGSGSGTDFTLTISSLQPEDFATYYCLQHGSGYTFGQGTKLEIK
For the molecule B20, the binding entry is listed as “binds”.

B21: Hu155A9B1-2 (antibody, V domains shown)
VH: EVQLQESGPGLVKPSETLSLTCTVSGGSISSYNVHWVRQPPGKGLEWIGRVRYNGDTSYNSALKSRVTISRDTSKNQFSLKLSSVTAADTAVYYCARGPYGGSSEPLFDYWGQGTMVTVSS
VL: DIQMTQSPSSLSASVGDRVTITCKASQNINKYLNWYQQKPGKAPRLLIYTTNNLQTGVPSRFSGSGSGTDFTLTISSLQPEDFATYYCLQHNSGYTFGQGTKLEIK
B21: the binding result was “binds”.
